The numbers were not newly measured in PMC2725292 (PLoS ONE, 2009), which cites them from elsewhere.

Data set [1] has as its target recombinant mouse 5-HT3A receptors. The conditions noted are these: read-out: IC50 clozapine, recombinant mouse 5-HT3A receptors; previously reported, ref [23], [24]; cited from earlier work.
The target in data set [2] is recombinant human 5-HT3A receptors. Particulars: read-out: IC50 clozapine, recombinant human 5-HT3A receptors; previously reported, ref [5]; cited from earlier work.

In the case of `CN1CCN(C2=Nc3cc(Cl)ccc3Nc3ccccc32)CC1` [clozapine, Clozapine], the IC50 in data set [1] is 10 nM; in data set [2] it was 680 nM.

For orientation: IC50 means the concentration at which inhibition is half-maximal.
